Negatives hold for the conditions tested. At least one verdict rests on a figure or table, not on a statement of the authors. For at least one entry, the source does not settle the construct or the ends of the probe. A weaker result is weaker than the reference pair of the same experiment.
Biological target: KdpE DBD (KdpEDBD) (Escherichia coli str. K-12 substr. MG1655) (UniProt P21866)
Experiment: EMSA
Conditions: EMSA: 10 mM Tris pH 8.0, 50 mM NaCl, 5% glycerol, 0.1% Triton X-100, 10 mM DTT, 1 mM EDTA, 1 uM DNA, 6% gel in TBE, temperature not stated, recombinant protein, residues 124-225, protein details: N-terminal His-tag removed with TEV
[1] = 1:8 DNA:protein, binds 1:1 in AUC

Chains of the proteins cited; added tags and fusions are not shown. Residues count along the entry.
UniProt P21866, 124-225: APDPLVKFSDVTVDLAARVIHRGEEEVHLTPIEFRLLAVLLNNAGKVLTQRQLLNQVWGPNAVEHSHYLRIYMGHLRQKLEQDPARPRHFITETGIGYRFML

Sequence | binding result | further results
CATTCCTATACTTTTTTTACACCCCGCCCG (double strand) [kdpFABCBS-1] |  | binding result [1]: no binding
CATTTCTATACTTTTTTTACACCCCGCCCG (double strand) [kdpFABCBS 6TC] | binds more weakly | 
CATTTTTATACTTTTTTTGCACCCCGCCCG (double strand) [kdpFABCBS 19AG] | binds more weakly | 
CATTTTTATACTTTTTCCACACCCCGCCCG (double strand) [kdpFABCBS-7] |  | binding result [1]: no binding
CATTTTCATACTTTTTTTACACCCCGCCCG (double strand) [kdpFABCBS 7TC] | binds more weakly | 
CATTTTTATACTTTTTTTGTACCCCGCCCG (double strand) [kdpFABCBS-8] |  | binding result (1:8 DNA:protein, changes A4 of S2): no binding
CATTTTTATACTTTTTTTACAC (double strand) [kdpFABCBS 3'del8] |  | binding result (contains minimal 21 bp): binds
CATTTTTATACTTCTTTTACACCCCGCCCG (double strand) [kdpFABCBS 14TC] | binds more weakly | 
CATTTTTATACTCTTTTTACACCCCGCCCG (double strand) [kdpFABCBS 13TC] | binds more weakly | 
CATTTTTGTACTTTTTTTACACCCCGCCCG (double strand) [kdpFABCBS 8AG] | binds more weakly | 
CATTTTTATACTTTCTTTACACCCCGCCCG (double strand) [kdpFABCBS 15TC] | binds more weakly | 
CATTTTCGTACTTTTTTTACACCCCGCCCG (double strand) [kdpFABCBS-2] |  | binding result (1:8 DNA:protein): no binding
CATTTTTATACTTTTCTTACACCCCGCCCG (double strand) [kdpFABCBS 16TC] | binds more weakly | 
CATCTTTATACTTTTTTTACACCCCGCCCG (double strand) [kdpFABCBS 4TC] | binds more weakly | 
CATTTTTATACTTTCCTTACACCCCGCCCG (double strand) [kdpFABCBS-6] |  | binding result (1:8 DNA:protein, changes first T of S2): no binding
CATTTTTATACTTTTTTTACACCC (double strand) [kdpFABCBS 3'del6] |  | binding result (contains minimal 21 bp): binds
CATTTTTATACTTTTTTCACACCCCGCCCG (double strand) [kdpFABCBS 18TC] | binds more weakly | 
CATTTTTATACTTTTTCTACACCCCGCCCG (double strand) [kdpFABCBS 17TC] | binds more weakly | 
CACTTTTATACTTTTTTTACACCCCGCCCG (double strand) [kdpFABCBS 3TC] | binds more weakly | 
ATTTTTATACTTTTTTTACACCCCGCCCG (double strand) [kdpFABCBS 5'del1] |  | binding result (contains minimal 21 bp): binds
CATTTTTATACTTTTTTTACACCCCGC (double strand) [kdpFABCBS 3'del3] |  | binding result (contains minimal 21 bp): binds
CATTTTTATACTTTTTTTACACC (double strand) [kdpFABCBS 3'del7] |  | binding result (contains minimal 21 bp): binds
